The target of this experiment is T1, IRS2 (CD1 mouse kidney) (mouse (endogenous in CD1 mouse kidney)) (UniProt P81122).
T1 sequence: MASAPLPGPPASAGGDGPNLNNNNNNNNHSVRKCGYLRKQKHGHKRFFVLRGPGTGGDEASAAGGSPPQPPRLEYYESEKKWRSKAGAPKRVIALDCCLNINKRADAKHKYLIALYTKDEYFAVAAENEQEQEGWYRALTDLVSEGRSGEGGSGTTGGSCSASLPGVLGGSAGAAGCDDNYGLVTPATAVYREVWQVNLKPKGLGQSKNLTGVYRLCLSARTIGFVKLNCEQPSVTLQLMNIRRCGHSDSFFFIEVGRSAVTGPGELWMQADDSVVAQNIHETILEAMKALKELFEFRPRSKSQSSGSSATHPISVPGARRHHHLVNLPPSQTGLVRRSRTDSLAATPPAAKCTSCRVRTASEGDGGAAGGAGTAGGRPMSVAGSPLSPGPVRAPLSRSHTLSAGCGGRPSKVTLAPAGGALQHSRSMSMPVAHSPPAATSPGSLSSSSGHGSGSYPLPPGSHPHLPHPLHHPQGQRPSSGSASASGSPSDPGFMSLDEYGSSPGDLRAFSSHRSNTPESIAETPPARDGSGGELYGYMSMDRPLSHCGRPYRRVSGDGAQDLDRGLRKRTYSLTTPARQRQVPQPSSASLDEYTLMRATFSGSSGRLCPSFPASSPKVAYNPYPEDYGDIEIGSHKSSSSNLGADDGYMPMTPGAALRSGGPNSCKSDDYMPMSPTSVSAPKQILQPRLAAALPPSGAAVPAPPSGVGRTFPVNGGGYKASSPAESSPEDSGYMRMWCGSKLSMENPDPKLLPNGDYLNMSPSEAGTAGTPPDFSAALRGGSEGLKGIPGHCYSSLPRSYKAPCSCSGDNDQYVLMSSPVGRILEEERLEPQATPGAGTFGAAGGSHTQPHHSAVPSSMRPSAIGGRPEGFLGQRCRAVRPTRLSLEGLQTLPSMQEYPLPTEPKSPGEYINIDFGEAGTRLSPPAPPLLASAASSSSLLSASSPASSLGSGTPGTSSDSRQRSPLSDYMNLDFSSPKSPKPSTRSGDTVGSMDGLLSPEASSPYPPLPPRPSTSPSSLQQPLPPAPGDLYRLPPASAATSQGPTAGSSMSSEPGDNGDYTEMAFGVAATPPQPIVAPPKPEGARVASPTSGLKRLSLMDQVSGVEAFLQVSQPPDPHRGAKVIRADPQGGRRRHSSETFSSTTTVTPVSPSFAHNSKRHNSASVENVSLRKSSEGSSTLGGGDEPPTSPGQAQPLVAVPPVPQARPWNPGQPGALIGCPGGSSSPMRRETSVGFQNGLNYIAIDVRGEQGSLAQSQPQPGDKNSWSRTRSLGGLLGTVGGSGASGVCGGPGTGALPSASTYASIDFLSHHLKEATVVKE
The experiment is described as follows: co-IP; kidney tissue homogenised in CelLytic M, diluted in PBS, about 1.5 mg total protein with 30 ug agarose-conjugated anti-IRS2 antibody, overnight at 8 °C, one wash in ice-cold PBS, elution in 0.1 M glycine; eluates assayed for Rictor and IGF1R by ELISA, result as Rictor::IGF1R ratio (AU); animals: Dahl rats on high-salt diet with saline or nephrilin, CD1 mice sham or rhabdomyolysis (glycerol) with saline or nephrilin. In general terms: In an ELISA, binding on a coated surface is turned into a signal by an enzyme label.

Sequences of proteins named here, by UniProt entry; tags and fusion partners are left off.
UniProt Q6QI06: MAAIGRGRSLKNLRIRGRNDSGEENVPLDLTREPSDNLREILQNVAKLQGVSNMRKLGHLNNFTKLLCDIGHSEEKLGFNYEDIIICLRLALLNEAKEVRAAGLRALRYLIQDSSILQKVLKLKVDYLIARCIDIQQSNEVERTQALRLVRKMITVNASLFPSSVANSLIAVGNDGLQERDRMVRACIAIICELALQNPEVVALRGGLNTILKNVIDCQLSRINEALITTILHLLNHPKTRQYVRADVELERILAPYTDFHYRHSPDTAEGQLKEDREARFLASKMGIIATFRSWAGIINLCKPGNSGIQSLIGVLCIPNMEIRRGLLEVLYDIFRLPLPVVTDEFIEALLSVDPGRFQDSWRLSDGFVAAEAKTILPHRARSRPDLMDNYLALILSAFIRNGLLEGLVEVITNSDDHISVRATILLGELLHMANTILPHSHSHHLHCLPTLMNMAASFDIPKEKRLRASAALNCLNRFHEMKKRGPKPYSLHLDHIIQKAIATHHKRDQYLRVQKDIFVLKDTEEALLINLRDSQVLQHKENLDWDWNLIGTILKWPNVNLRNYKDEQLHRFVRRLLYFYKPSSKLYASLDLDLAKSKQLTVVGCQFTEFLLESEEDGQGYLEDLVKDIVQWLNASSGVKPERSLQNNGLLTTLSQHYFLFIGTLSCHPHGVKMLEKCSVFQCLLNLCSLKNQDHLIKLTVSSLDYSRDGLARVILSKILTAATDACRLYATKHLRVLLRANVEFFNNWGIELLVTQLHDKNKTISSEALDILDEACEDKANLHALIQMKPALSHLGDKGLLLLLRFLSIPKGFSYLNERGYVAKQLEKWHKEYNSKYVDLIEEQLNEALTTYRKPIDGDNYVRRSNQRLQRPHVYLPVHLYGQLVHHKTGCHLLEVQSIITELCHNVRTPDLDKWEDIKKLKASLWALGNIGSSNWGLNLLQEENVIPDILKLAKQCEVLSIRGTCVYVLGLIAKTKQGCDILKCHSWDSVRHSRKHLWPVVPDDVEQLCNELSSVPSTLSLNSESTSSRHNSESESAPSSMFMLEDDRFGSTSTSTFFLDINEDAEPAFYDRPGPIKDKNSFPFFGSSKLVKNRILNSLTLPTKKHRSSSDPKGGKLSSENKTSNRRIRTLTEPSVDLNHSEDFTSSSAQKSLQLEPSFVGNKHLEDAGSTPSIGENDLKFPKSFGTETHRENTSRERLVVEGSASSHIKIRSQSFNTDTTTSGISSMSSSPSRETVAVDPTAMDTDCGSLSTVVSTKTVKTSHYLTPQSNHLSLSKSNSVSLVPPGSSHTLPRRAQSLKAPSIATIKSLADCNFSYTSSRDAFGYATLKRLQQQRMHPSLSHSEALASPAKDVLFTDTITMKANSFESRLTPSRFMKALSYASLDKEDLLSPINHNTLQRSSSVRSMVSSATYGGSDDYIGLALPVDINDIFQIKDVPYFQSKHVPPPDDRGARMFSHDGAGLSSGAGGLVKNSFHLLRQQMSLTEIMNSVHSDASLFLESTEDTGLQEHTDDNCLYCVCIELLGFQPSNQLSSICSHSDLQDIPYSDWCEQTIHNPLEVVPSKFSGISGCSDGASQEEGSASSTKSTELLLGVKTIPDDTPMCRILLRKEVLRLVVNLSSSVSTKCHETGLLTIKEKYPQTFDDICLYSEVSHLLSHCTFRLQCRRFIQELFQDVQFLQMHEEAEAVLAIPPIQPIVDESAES

Results are given in words; binding and its absence hold for the method and conditions named. Binding seen in cells or lysates may run through a third protein. Some binding calls cover weakened binding; strength is not graded here.

Binding data for one substance are collected here from PMC3496474.

“Rictor (CD1 mouse kidney) (from UniProt Q6QI06 1-1708)”: the binding entry is “binds”.
